In PMC10891341:

T1: NOP14 tagged with S-FLAG-SBP (SFB) (human) (UniProt P78316)
T1 sequence: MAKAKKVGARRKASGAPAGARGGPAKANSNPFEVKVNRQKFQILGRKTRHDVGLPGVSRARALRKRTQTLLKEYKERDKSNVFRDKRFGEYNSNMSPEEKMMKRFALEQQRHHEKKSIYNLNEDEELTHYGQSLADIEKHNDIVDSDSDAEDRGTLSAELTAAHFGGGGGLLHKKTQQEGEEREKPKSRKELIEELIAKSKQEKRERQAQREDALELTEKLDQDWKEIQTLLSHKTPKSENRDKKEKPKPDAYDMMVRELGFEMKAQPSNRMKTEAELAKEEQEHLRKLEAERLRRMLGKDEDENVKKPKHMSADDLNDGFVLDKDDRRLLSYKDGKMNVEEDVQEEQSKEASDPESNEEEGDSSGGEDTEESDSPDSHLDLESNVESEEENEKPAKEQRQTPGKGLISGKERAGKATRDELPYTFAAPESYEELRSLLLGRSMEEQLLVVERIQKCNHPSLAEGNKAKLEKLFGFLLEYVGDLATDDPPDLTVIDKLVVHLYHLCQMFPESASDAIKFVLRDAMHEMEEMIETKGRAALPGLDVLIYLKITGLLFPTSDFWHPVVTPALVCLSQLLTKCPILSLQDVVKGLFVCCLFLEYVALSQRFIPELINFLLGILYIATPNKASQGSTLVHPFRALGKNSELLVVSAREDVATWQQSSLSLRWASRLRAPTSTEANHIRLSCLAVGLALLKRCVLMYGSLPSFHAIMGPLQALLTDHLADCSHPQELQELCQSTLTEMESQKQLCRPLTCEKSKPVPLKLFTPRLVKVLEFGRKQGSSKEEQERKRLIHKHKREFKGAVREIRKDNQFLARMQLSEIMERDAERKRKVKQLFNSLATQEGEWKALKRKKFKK


Molecular target: T1, NOP14 tagged with S-FLAG-SBP (SFB) (human)
Experiment: affinity purification with mass spectrometry; tandem affinity purification (two rounds) of SFB-tagged NOP14 from stably expressing 293T cells; LC-MS/MS

Binder	binding
bystin-like (BYSL) (protein, UniProt Q13895 1-437) MPKFKAARGVGGQEKHAPLADQILAGNAVRAGVREKRRGRGTGEAEEEYVGPRLSRRILQQARQQQEELEAEHGTGDKPAAPRERTTRLGPRMPQDGSDDEDEEWPTLEKAATMTAAGHHAEVVVDPEDERAIEMFMNKNPPARRTLADIIMEKLTEKQTEVETVMSEVSGFPMPQLDPRVLEVYRGVREVLSKYRSGKLPKAFKIIPALSNWEQILYVTEPEAWTAAAMYQATRIFASNLKERMAQRFYNLVLLPRVRDDVAEYKRLNFHLYMALKKALFKPGAWFKGILIPLCESGTCTLREAIIVGSIITKCSIPVLHSSAAMLKIAEMEYSGANSIFLRLLLDKKYALPYRVLDALVFHFLGFRTEKRELPVLWHQCLLTLVQRYKADLATDQKEALLELLRLQPHPQLSPEIRRELQSAVPRDVEDVPITVE	binds
poly(A)-specific ribonuclease (PARN) (protein, UniProt O95453 1-639) MEIIRSNFKSNLHKVYQAIEEADFFAIDGEFSGISDGPSVSALTNGFDTPEERYQKLKKHSMDFLLFQFGLCTFKYDYTDSKYITKSFNFYVFPKPFNRSSPDVKFVCQSSSIDFLASQGFDFNKVFRNGIPYLNQEEERQLREQYDEKRSQANGAGALSYVSPNTSKCPVTIPEDQKKFIDQVVEKIEDLLQSEENKNLDLEPCTGFQRKLIYQTLSWKYPKGIHVETLETEKKERYIVISKVDEEERKRREQQKHAKEQEELNDAVGFSRVIHAIANSGKLVIGHNMLLDVMHTVHQFYCPLPADLSEFKEMTTCVFPRLLDTKLMASTQPFKDIINNTSLAELEKRLKETPFNPPKVESAEGFPSYDTASEQLHEAGYDAYITGLCFISMANYLGSFLSPPKIHVSARSKLIEPFFNKLFLMRVMDIPYLNLEGPDLQPKRDHVLHVTFPKEWKTSDLYQLFSAFGNIQISWIDDTSAFVSLSQPEQVKIAVNTSKYAESYRIQTYAEYMGRKQEEKQIKRKWTEDSWKEADSKRLNPQCIPYTLQNHYYRNNSFTAPSTVGKRNLSPSQEEAGLEDGVSGEISDTELEQTDSCAEPLSEGRKKAKKLKRMKKELSPAGSISKNSPATLFEVPDTW	binds
ribosomal RNA processing 12 homolog (RRP12) (protein, UniProt Q5JTH9 1-1297) MGRSGKLPSGVSAKLKRWKKGHSSDSNPAICRHRQAARSRFFSRPSGRSDLTVDAVKLHNELQSGSLRLGKSEAPETPMEEEAELVLTEKSSGTFLSGLSDCTNVTFSKVQRFWESNSAAHKEICAVLAAVTEVIRSQGGKETETEYFAALMTTMEAVESPESLAAVAYLLNLVLKRVPSPVLIKKFSDTSKAFMDIMSAQASSGSTSVLRWVLSCLATLLRKQDLEAWGYPVTLQVYHGLLSFTVHPKPKIRKAAQHGVCSVLKGSEFMFEKAPAHHPAAISTAKFCIQEIEKSGGSKEATTTLHMLTLLKDLLPCFPEGLVKSCSETLLRVMTLSHVLVTACAMQAFHSLFHARPGLSTLSAELNAQIITALYDYVPSENDLQPLLAWLKVMEKAHINLVRLQWDLGLGHLPRFFGTAVTCLLSPHSQVLTAATQSLKEILKECVAPHMADIGSVTSSASGPAQSVAKMFRAVEEGLTYKFHAAWSSVLQLLCVFFEACGRQAHPVMRKCLQSLCDLRLSPHFPHTAALDQAVGAAVTSMGPEVVLQAVPLEIDGSEETLDFPRSWLLPVIRDHVQETRLGFFTTYFLPLANTLKSKAMDLAQAGSTVESKIYDTLQWQMWTLLPGFCTRPTDVAISFKGLARTLGMAISERPDLRVTVCQALRTLITKGCQAEADRAEVSRFAKNFLPILFNLYGQPVAAGDTPAPRRAVLETIRTYLTITDTQLVNSLLEKASEKVLDPASSDFTRLSVLDLVVALAPCADEAAISKLYSTIRPYLESKAHGVQKKAYRVLEEVCASPQGPGALFVQSHLEDLKKTLLDSLRSTSSPAKRPRLKCLLHIVRKLSAEHKEFITALIPEVILCTKEVSVGARKNAFALLVEMGHAFLRFGSNQEEALQCYLVLIYPGLVGAVTMVSCSILALTHLLFEFKGLMGTSTVEQLLENVCLLLASRTRDVVKSALGFIKVAVTVMDVAHLAKHVQLVMEAIGKLSDDMRRHFRMKLRNLFTKFIRKFGFELVKRLLPEEYHRVLVNIRKAEARAKRHRALSQAAVEEEEEEEEEEEPAQGKGDSIEEILADSEDEEDNEEEERSRGKEQRKLARQRSRAWLKEGGGDEPLNFLDPKVAQRVLATQPGPGRGRKKDHGFKVSADGRLIIREEADGNKMEEEEGAKGEDEEMADPMEDVIIRNKKHQKLKHQKEAEEEELEIPPQYQAGGSGIHRPVAKKAMPGAEYKAKKAKGDVKKKGRPDPYAYIPLNRSKLNRRKKMKLQGQFKGLVKAARRGSQVGHKNRRKDRRP	binds
DEAH-box helicase 37 (DHX37) (protein, UniProt Q8IY37 1-1157) MGKLRRRYNIKGRQQAGPGPSKGPPEPPPVQLELEDKDTLKGVDASNALVLPGKKKKKTKAPPLSKKEKKPLTKKEKKVLQKILEQKEKKSQRAEMLQKLSEVQASEAEMRLFYTTSKLGTGNRMYHTKEKADEVVAPGQEKISSLSGAHRKRRRWPSAEEEEEEEEESESELEEESELDEDPAAEPAEAGVGTTVAPLPPAPAPSSQPVPAGMTVPPPPAAAPPLPRALAKPAVFIPVNRSPEMQEERLKLPILSEEQVIMEAVAEHPIVIVCGETGSGKTTQVPQFLYEAGFSSEDSIIGVTEPRRVAAVAMSQRVAKEMNLSQRVVSYQIRYEGNVTEETRIKFMTDGVLLKEIQKDFLLLRYKVVIIDEAHERSVYTDILIGLLSRIVTLRAKRNLPLKLLIMSATLRVEDFTQNPRLFAKPPPVIKVESRQFPVTVHFNKRTPLEDYSGECFRKVCKIHRMLPAGGILVFLTGQAEVHALCRRLRKAFPPSRARPQEKDDDQKDSVEEMRKFKKSRARAKKARAEVLPQINLDHYSVLPAGEGDEDREAEVDEEEGALDSDLDLDLGDGGQDGGEQPDASLPLHVLPLYSLLAPEKQAQVFKPPPEGTRLCVVATNVAETSLTIPGIKYVVDCGKVKKRYYDRVTGVSSFRVTWVSQASADQRAGRAGRTEPGHCYRLYSSAVFGDFEQFPPPEITRRPVEDLILQMKALNVEKVINFPFPTPPSVEALLAAEELLIALGALQPPQKAERVKQLQENRLSCPITALGRTMATFPVAPRYAKMLALSRQHGCLPYAITIVASMTVRELFEELDRPAASDEELTRLKSKRARVAQMKRTWAGQGASLKLGDLMVLLGAVGACEYASCTPQFCEANGLRYKAMMEIRRLRGQLTTAVNAVCPEAELFVDPKMQPPTESQVTYLRQIVTAGLGDHLARRVQSEEMLEDKWRNAYKTPLLDDPVFIHPSSVLFKELPEFVVYQEIVETTKMYMKGVSSVEVQWIPALLPSYCQFDKPLEEPAPTYCPERGRVLCHRASVFYRVGWPLPAIEVDFPEGIDRYKHFARFLLEGQVFRKLASYRSCLLSSPGTMLKTWARLQPRTESLLRALVAEKADCHEALLAAWKKNPKYLLAEYCEWLPQAMHPDIEKAWPPTTVH	binds

These are yes or no findings as the source states them, for the method shown. Binding seen in cells or lysates may run through a third protein. Here binding means that the protein was enriched with, or labelled near, the bait; the list need not be complete. Sequences can lack the tags named with a protein.
